Reference: the supplement of paper PMC5949888
Most values lie at the floor of the assay. Slopes are relative: functional sequences can read slightly below zero.

system: Saccharomyces cerevisiae PS128 hsf1 delta, HSF1(1-493) fusion; experiment: growth estimate (transactivation domain function in HSF1 fusion, heat-shock survival) (a.u. (slope of normalised read count over time)); higher = stronger growth at 37°C, i.e. more transactivation activity; conditions: library: random library

Row | Substance | growth estimate
1 | SEGVWRLAQRQAVVLKRLGA | < -0.25
2 | SEILSSK | < -0.25
3 | SEISTGVTCSLL | < -0.25
4 | SEKNSSEGAACYVRQSVLQC | < -0.25
5 | SEKREKTNW | < -0.25
6 | SELEKGYTRQGFLRNLNSGA | < -0.25
7 | SELSS | < -0.25
8 | SEMYVPKKGTARKYRIGCQG | < -0.25
9 | SEN | < -0.25
10 | SENVPKRKGLTGLCHSGGWV | < -0.25
11 | SEP | < -0.25
12 | SEPHSELLDILSMQIED | < -0.25
13 | SEPLGCPPVNTHL | < -0.25
14 | SEPPMRRSIDSMQRLAKSLA | -0.243
15 | SEQCVSPPPLHGFDLMTWLR | -0.17
16 | SER | < -0.25
17 | SERHPVAYMVCGEGAGYCYW | < -0.25
18 | SERLIKDFSARPKTIDQAAP | < -0.25
19 | SERSET | < -0.25
20 | SERVASVMMPFCA | < -0.25
21 | SESIAEMLARLLRDRDSRFR | < -0.25
22 | SESVRRKDSYRVLFANAYDI | < -0.25
23 | SETGSLTGSTFSSTECKCTS | < -0.25
24 | SEVAHQHRRASFWRHSTARP | < -0.25
25 | SEVGGNRGGPTSKGYGHSRT | < -0.25

Laid out differently: entries from further up
SEILSSK
  growth estimate = < -0.25
SEISTGVTCSLL
  growth estimate = < -0.25

Further results

Row | Substance | growth estimate
26 | SEVSIPISNQLCRRTRQNAG | < -0.25
27 | SEYCSSMGPDPGKLHSPRRI | < -0.25
28 | SFAT | < -0.25
29 | SFECLSTSVATVIQGFATHF | < -0.25
30 | SFEWGTGRNHLLETRCVSRR | < -0.25
31 | SFFCFMS | < -0.25
32 | SFFRGRFIISGFN | < -0.25
33 | SFFSSCIFRAWFGYVATILQ | < -0.25
34 | SFGVAFALSALIEMISQARF | < -0.25
35 | SFL | < -0.25
36 | SFLSGGRLA | < -0.25
37 | SFMCQVVPCDKYAASRRERT | < -0.25
38 | SFNR | < -0.25
39 | SFPG | -0.245
40 | SFPPVRGG | < -0.25
41 | SFQLRPPLLDATWTRLNRRS | < -0.25
42 | SFRDAFNFFLGRRFCLPANA | < -0.25
43 | SFRHG | < -0.25
44 | SFRLACGVNGHTE | < -0.25
45 | SFRSKAP | < -0.25
46 | SFRSSRTYSLVVFGVNAGVA | < -0.25
47 | SFRVGRGLCRVLAALGTEHR | < -0.25
48 | SFRVL | < -0.25
49 | SFSACMQYRWGLSNVMSAHR | -0.243
50 | SFSERLQWSLPVNSSVDGHY | < -0.25

Row | Substance | growth estimate
51 | SFSKRLKPIPDGCSELLIDP | < -0.25
52 | SFTLCARPHGSEINPPTVRA | < -0.25
53 | SFTR | < -0.25
54 | SFWDASSTFRRCIHS | < -0.25
55 | SFYASRSVAIVRRHARAQRR | -0.248
56 | SGA | < -0.25
57 | SGAGRTPISTVG | < -0.25
58 | SGAIRHELRQTGTV | < -0.25
59 | SGALLKCLGPSAVRRL | < -0.25
60 | SGASYFEFYTGNNTRLRFSF | < -0.25
61 | SGATLSCAEILAANDKGRQH | < -0.25
62 | SGAVIFLGCNIDPLRYAYGF | < -0.25
63 | SGCCPRGGMATFVGRVSTSS | < -0.25
64 | SGCGIPPRRPTVLEARMLSF | < -0.25
65 | SGCLRTMFE | < -0.25
66 | SGCYD | < -0.25
67 | SGDCI | < -0.25
68 | SGDCLLTPRFTVGSTRRRMS | -0.236
69 | SGDGGCPVSVMCNG | < -0.25
70 | SGDSQQGIGVRITKLGV | < -0.25
71 | SGECDENCEAH | < -0.25
72 | SGECGAMVALLNVGHW | < -0.25
73 | SGEDTGPVVSRTG | < -0.25
74 | SGENYKSEIDKPTTFVDLCR | < -0.25
75 | SGERVRQ | < -0.25

Another view of some results above:
Row	Substance	growth estimate
50	SFSERLQWSLPVNSSVDGHY	< -0.25
51	SFSKRLKPIPDGCSELLIDP	< -0.25
52	SFTLCARPHGSEINPPTVRA	< -0.25
53	SFTR	< -0.25
54	SFWDASSTFRRCIHS	< -0.25
55	SFYASRSVAIVRRHARAQRR	-0.248

Following part.

Row | Substance | growth estimate
76 | SGEWLDLGIRLKIPDDPVAL | < -0.25
77 | SGFGHKGVNSEGRSPRTGLS | < -0.25
78 | SGFRVNRRILTCSSYTVGSG | < -0.25
79 | SGGDPKEFIAGLPYREPIAV | < -0.25
80 | SGGIGTNGALGLDA | < -0.25
81 | SGGLRFGPLMSDLFTAKKRQ | < -0.25
82 | SGGQDPEILLRDGICRHQAQ | < -0.25
83 | SGGRECHFGGPLDYVRCQHI | < -0.25
84 | SGGRFPPKDTIEMSSSGTAS | < -0.25
85 | SGGSFGPDHTRCYFRKRQLD | < -0.25
86 | SGGVLSDLLSATFSVHTQLV | < -0.25
87 | SGGVRLTPLVRRWHSGTSSA | < -0.25
88 | SGHGWVHLVFETLDPRF | < -0.25
89 | SGHLIAL | < -0.25
90 | SGIPRPGSVLTQRGDQNLSV | < -0.25
91 | SGISLLTGNPRVKLSICGGC | < -0.25
92 | SGISQSVWGHRQFCGQTSSL | < -0.25
93 | SGITYP | < -0.25
94 | SGIVVLIDHRRVKATGTSVE | < -0.25
95 | SGKRWTNLARGLQDGHIFRV | < -0.25
96 | SGLARTVFPAITTRTYAPPP | < -0.25
97 | SGLHRSDDSSVPPSTQ | < -0.25
98 | SGLMGHGCRATLGQMGAAQT | < -0.25
